PubChem BioAssay AID1224830, NIAID – 2016
Screen: 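Host factors that control LPS-induced TNF expression in human macrophages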 (primary screen). Cell system: human THP-1 monocytic leukaemia cells, TNF dual-luciferase reporter clone, PMA-differentiated to macrophage-like cells. Reagent: siRNA pool against human genes, 50 nM. Timing: LPS for 4 h, given about 3 days after siRNA transfection. Challenge: bacterial LPS (TLR4 ligand), 10 ng/ml. Detection: 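Ratio of firefly to renilla light, scaled to the plate median and expressed as a robust z-score per replicate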. Scale: TNF reporter robust z-score: higher = stronger TNF reporter response to LPS. Hit rule: 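Each well counts as active if its z-score is over 2.8 or under -1.5; controls are left without a call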.
This is an unselected part of about 18,000 deposited reagents. In the full data, about 2,900 (16%) were called active. 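Calls are made per well; low scores hint the gene aids the LPS response, high scores that it dampens it.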 A number with no mark means an inactive call. Repeated entries: four replicate wells of each siRNA pool.

TNF reporter robust z-score	gene symbol
-0.57	AMMECR1 (AMMECR nuclear protein 1)
-0.89	AMMECR1 (AMMECR nuclear protein 1)
-1.01	AMMECR1 (AMMECR nuclear protein 1)
-0.74	AMMECR1 (AMMECR nuclear protein 1)
-0.77	PIGV (phosphatidylinositol glycan anchor biosynthesis class V)
-1.34	PIGV (phosphatidylinositol glycan anchor biosynthesis class V)
-1.62 (active)	PIGV (phosphatidylinositol glycan anchor biosynthesis class V)
-1.36	PIGV (phosphatidylinositol glycan anchor biosynthesis class V)
-0.49	TGIF2LX (TGFB induced factor homeobox 2 like X-linked)
0.89	TGIF2LX (TGFB induced factor homeobox 2 like X-linked)
-0.22	TGIF2LX (TGFB induced factor homeobox 2 like X-linked)
-0.27	TGIF2LX (TGFB induced factor homeobox 2 like X-linked)
-0.21	ALX4 (ALX homeobox 4)
-0.05	ALX4 (ALX homeobox 4)
0.52	ALX4 (ALX homeobox 4)
0.39	ALX4 (ALX homeobox 4)
-0.4	GAS2L2 (growth arrest specific 2 like 2)
0.42	GAS2L2 (growth arrest specific 2 like 2)
-0.61	GAS2L2 (growth arrest specific 2 like 2)
0.68	GAS2L2 (growth arrest specific 2 like 2)
-0.16	BNC1 (basonuclin zinc finger protein 1)
-0.07	BNC1 (basonuclin zinc finger protein 1)
-1.2	BNC1 (basonuclin zinc finger protein 1)
-0.79	BNC1 (basonuclin zinc finger protein 1)
0.98	PTBP2 (polypyrimidine tract binding protein 2)
0.07	PTBP2 (polypyrimidine tract binding protein 2)
-0.75	PTBP2 (polypyrimidine tract binding protein 2)
-0.23	PTBP2 (polypyrimidine tract binding protein 2)
-0.88	ZNF526 (zinc finger protein 526)
-0.96	ZNF526 (zinc finger protein 526)
-0.56	ZNF526 (zinc finger protein 526)
0.27	ZNF526 (zinc finger protein 526)
0.96	IFITM2 (interferon induced transmembrane protein 2)
-0.2	IFITM2 (interferon induced transmembrane protein 2)
0.45	IFITM2 (interferon induced transmembrane protein 2)
1.36	IFITM2 (interferon induced transmembrane protein 2)
-0.21	NSUN5 (NOP2/Sun RNA methyltransferase 5)
0.86	NSUN5 (NOP2/Sun RNA methyltransferase 5)
0.83	NSUN5 (NOP2/Sun RNA methyltransferase 5)
1.57	NSUN5 (NOP2/Sun RNA methyltransferase 5)
1.15	CARHSP1 (calcium regulated heat stable protein 1)
0.6	CARHSP1 (calcium regulated heat stable protein 1)
2.46	CARHSP1 (calcium regulated heat stable protein 1)
2.13	CARHSP1 (calcium regulated heat stable protein 1)

An excerpt of the results above:
TNF reporter robust z-score	gene symbol
-1.01	AMMECR1 (AMMECR nuclear protein 1)
-0.74	AMMECR1 (AMMECR nuclear protein 1)
-0.77	PIGV (phosphatidylinositol glycan anchor biosynthesis class V)
-1.34	PIGV (phosphatidylinositol glycan anchor biosynthesis class V)
-1.62 (active)	PIGV (phosphatidylinositol glycan anchor biosynthesis class V)
-1.36	PIGV (phosphatidylinositol glycan anchor biosynthesis class V)
-0.49	TGIF2LX (TGFB induced factor homeobox 2 like X-linked)
0.89	TGIF2LX (TGFB induced factor homeobox 2 like X-linked)
-0.22	TGIF2LX (TGFB induced factor homeobox 2 like X-linked)
-0.27	TGIF2LX (TGFB induced factor homeobox 2 like X-linked)
-0.21	ALX4 (ALX homeobox 4)
-0.05	ALX4 (ALX homeobox 4)
0.52	ALX4 (ALX homeobox 4)

The list goes on:
TNF reporter robust z-score	gene symbol
-0.58	THBS4 (thrombospondin 4)
0.01	THBS4 (thrombospondin 4)
-0.23	THBS4 (thrombospondin 4)
-1.39	THBS4 (thrombospondin 4)
2.44	OPRPN (opiorphin prepropeptide)
1.81	OPRPN (opiorphin prepropeptide)
1.93	OPRPN (opiorphin prepropeptide)
2.3	OPRPN (opiorphin prepropeptide)
-1.29	C11orf71 (chromosome 11 open reading frame 71)
-1.02	C11orf71 (chromosome 11 open reading frame 71)
0	C11orf71 (chromosome 11 open reading frame 71)
-0.29	C11orf71 (chromosome 11 open reading frame 71)
-0.9	KRT12 (keratin 12)
-0.08	KRT12 (keratin 12)
-1.05	KRT12 (keratin 12)
-1	KRT12 (keratin 12)
-0.61	MAPRE1 (microtubule associated protein RP/EB family member 1)
-0.35	MAPRE1 (microtubule associated protein RP/EB family member 1)
-0.52	MAPRE1 (microtubule associated protein RP/EB family member 1)
-0.49	PTPRN (protein tyrosine phosphatase receptor type N)
-1.12	PTPRN (protein tyrosine phosphatase receptor type N)
-0.36	PTPRN (protein tyrosine phosphatase receptor type N)
-0.05	SIRT7 (sirtuin 7)
1.43	SIRT7 (sirtuin 7)
0.18	SIRT7 (sirtuin 7)
1.58	SIRT7 (sirtuin 7)
3.35 (active)	TP53INP2 (tumor protein p53 inducible nuclear protein 2)
-0.78	TP53INP2 (tumor protein p53 inducible nuclear protein 2)
1.96	TP53INP2 (tumor protein p53 inducible nuclear protein 2)
-0.68	TP53INP2 (tumor protein p53 inducible nuclear protein 2)
-0.38	EVI5L (ecotropic viral integration site 5 like)
1.69	EVI5L (ecotropic viral integration site 5 like)
-0.25	EVI5L (ecotropic viral integration site 5 like)
1.06	EVI5L (ecotropic viral integration site 5 like)
-1.06	CRYL1 (crystallin lambda 1)
0.43	CRYL1 (crystallin lambda 1)
0.51	CRYL1 (crystallin lambda 1)
0.44	CRYL1 (crystallin lambda 1)
1.2	SPATS2 (spermatogenesis associated serine rich 2)
4.03 (active)	SPATS2 (spermatogenesis associated serine rich 2)
-0.25	SPATS2 (spermatogenesis associated serine rich 2)
2.01	SPATS2 (spermatogenesis associated serine rich 2)
-0.67	FADD (Fas associated via death domain)
1.23	FADD (Fas associated via death domain)
-0.07	FADD (Fas associated via death domain)
2.33	FADD (Fas associated via death domain)
5.46 (active)	BUB3 (BUB3 mitotic checkpoint protein)
6.46 (active)	BUB3 (BUB3 mitotic checkpoint protein)
7.62 (active)	BUB3 (BUB3 mitotic checkpoint protein)
3.59 (active)	BUB3 (BUB3 mitotic checkpoint protein)
0.98	PHF19 (PHD finger protein 19)
0.19	PHF19 (PHD finger protein 19)
0.99	PHF19 (PHD finger protein 19)
0.17	PHF19 (PHD finger protein 19)
-0.11	KLHL3 (kelch like family member 3)
-0.08	KLHL3 (kelch like family member 3)
-0.38	KLHL3 (kelch like family member 3)
-0.21	KLHL3 (kelch like family member 3)
3.12 (active)	VPS50 (VPS50 subunit of EARP/GARPII complex)
1.6	VPS50 (VPS50 subunit of EARP/GARPII complex)
-0.09	VPS50 (VPS50 subunit of EARP/GARPII complex)
1.68	VPS50 (VPS50 subunit of EARP/GARPII complex)
-1.48	DGKZ (diacylglycerol kinase zeta)
0.52	DGKZ (diacylglycerol kinase zeta)
-1.61 (active)	DGKZ (diacylglycerol kinase zeta)
-1.19	DGKZ (diacylglycerol kinase zeta)
